Consider three sequences from paper PMC13287468, “Newton’s cradle-like allosteric mechanism explains regulatory RsmE RNA binding”.

For at least one entry, the source does not settle the construct or the ends of the probe. The comparison behind a weaker result is the experiment's own reference, which may not be listed here. Where a protein sequence is shown, tags need not be part of it. The direction of at least one scale is not stated here.

In this data set the target is T1, RsmE dimer (P64W, C-terminal His6) (UniProt P0DPC3).
T1 sequence (looked up): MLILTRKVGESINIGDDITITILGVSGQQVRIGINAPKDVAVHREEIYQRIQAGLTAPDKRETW
The data set is described as follows: ITC. As to conditions: 30 mM NaCl, 50 mM potassium phosphate pH 7.2, ITC at 298 K (NaCl varied in Supp. Fig. 8), RNA titrated into 10 uM RsmE monomer, sequential two-site model, recombinant protein, residues 1-64, protein details: C-terminal 6xHis.

As a reminder, the Kd is the constant that tells how readily two partners part at equilibrium.

GGAUCAAGGACGAUCC [4bpSL2 RNA]: the binding result (first site, affinity substantially reduced vs SL2) is given as “binds more weakly”. Also, the binding signal (Kd2/Kd1 ratio) (second site vs first site) was 3.
GGGCCAUCAAGGACGAUGGUCC [SL2 RNA (RsmZ)]: the binding result (increased NaCl, first-site affinity reduced proportionally more than second) is “binds more weakly”. The binding signal (Kd2/Kd1 ratio) (second site vs first site (10- to 30-fold reduced)) is 20.
With GGGCUUCACGGAUGAAGCCC [hcnA SD RNA], the equilibrium dissociation constant (Kd) (second site, SL2 RNA already bound at the first site) is 300 nM.
